Results reported in PMC11282742.
These are yes or no findings as the source states them, for the method shown. Binding seen in cells or lysates may run through a third protein. Some entries that bind do so weakly or less than the wild type. For part of these data: Sequences can lack the tags named with a protein. One block for each substance: values may come before it.

Sequences of proteins named here, by UniProt entry; tags and fusion partners are left off. Residues count along the entry.
UniProt P37173, residues 23-567: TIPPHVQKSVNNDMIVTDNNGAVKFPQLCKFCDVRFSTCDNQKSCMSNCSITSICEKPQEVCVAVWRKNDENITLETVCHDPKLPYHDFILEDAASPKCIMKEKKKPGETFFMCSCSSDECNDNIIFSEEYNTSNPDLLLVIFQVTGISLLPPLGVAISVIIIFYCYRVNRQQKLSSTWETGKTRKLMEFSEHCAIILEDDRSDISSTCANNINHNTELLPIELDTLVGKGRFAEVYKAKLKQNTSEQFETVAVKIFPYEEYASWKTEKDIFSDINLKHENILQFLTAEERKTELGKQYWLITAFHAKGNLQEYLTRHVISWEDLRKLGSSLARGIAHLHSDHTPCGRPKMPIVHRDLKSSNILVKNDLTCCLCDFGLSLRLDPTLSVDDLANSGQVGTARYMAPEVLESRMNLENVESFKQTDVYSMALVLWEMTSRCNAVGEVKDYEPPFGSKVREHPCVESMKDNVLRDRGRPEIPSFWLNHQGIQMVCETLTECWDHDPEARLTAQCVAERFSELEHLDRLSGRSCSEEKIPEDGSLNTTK
UniProt Q9HCE7: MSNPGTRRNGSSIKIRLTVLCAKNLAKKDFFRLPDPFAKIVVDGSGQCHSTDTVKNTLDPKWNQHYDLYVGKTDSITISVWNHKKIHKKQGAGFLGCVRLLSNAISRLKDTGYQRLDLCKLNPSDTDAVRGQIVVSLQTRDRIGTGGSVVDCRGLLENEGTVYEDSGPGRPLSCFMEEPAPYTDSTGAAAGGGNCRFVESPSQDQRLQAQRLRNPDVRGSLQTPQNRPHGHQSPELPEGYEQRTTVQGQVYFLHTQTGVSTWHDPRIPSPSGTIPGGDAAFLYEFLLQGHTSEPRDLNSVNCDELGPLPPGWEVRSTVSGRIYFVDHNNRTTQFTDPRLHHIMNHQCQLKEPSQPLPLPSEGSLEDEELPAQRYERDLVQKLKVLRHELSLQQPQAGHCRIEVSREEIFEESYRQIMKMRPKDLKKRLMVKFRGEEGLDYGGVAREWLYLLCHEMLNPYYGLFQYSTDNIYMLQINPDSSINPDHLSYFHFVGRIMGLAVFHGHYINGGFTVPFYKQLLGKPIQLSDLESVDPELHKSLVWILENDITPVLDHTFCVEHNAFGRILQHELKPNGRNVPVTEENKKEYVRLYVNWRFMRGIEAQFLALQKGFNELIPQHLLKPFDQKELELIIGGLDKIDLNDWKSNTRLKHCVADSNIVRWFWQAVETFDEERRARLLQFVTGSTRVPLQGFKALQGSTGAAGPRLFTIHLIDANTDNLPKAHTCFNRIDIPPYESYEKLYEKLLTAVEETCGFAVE

Legend:
[1] = molecular target: Transforming growth factor beta receptor 2 (TβRII) (human (endogenous in SW480 and HCT116)) (UniProt P37173); assay: co-IP; endogenous TβRII and Smurf1; lysates of SW480 cells overexpressing SLC14A1 or vector and of HCT116 cells with SLC14A1 knockdown or control; IP with anti-TβRII antibody, immunoblot for Smurf1
His-SLC14A1 = molecular target: T1, His-SLC14A1 (UniProt Q13336); assay: co-IP; 293 T cells transfected with His-SLC14A1 and Flag-TβRII; lysates immunoprecipitated with anti-His antibodies, Flag-tagged protein detected by immunoblot
T1 sequence: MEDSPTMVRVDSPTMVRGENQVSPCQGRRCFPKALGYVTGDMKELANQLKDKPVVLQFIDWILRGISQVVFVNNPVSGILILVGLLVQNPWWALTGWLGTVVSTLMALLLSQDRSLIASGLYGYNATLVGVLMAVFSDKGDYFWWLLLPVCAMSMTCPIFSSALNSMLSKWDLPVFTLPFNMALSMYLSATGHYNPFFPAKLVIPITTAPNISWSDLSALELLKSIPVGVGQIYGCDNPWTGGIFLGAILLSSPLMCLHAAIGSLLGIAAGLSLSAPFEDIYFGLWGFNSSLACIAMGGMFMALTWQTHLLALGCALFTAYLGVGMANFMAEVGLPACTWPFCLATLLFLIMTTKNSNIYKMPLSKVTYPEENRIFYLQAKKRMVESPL

[2] = molecular target: T2, Solute Carrier Family 14 Member 1 (SLC14A1) (human (endogenous in SW480)) (UniProt Q13336); assay: co-IP; endogenous proteins in SW480 cell lysate; IP with anti-SLC14A1 or anti-TβRII antibody, protein A/G-agarose, washed with PBS, immunoblot
T2 sequence: T1 sequence

binding [1]: binds
Substance: E3 ubiquitin ligase Smurf1 (from UniProt Q9HCE7 1-757) (enzyme)

binding (His-SLC14A1): binds
Substance: Flag-TβRII (from UniProt P37173 23-567) (receptor)

binding [2]: binds
Substance: Transforming growth factor beta receptor 2 (TβRII) (from UniProt P37173 23-567)
